From paper PMC8864472
Results are given in words; binding and its absence hold for the method and conditions named. Binding seen in cells or lysates may run through a third protein. Some entries that bind do so weakly or less than the wild type. For some assays here: Where a sequence is shown, tags or fusion partners need not be part of it.

Amino acid sequences for entries named in this document (tags omitted). Residues count along the entry.
UniProt P11021, residues 19-654: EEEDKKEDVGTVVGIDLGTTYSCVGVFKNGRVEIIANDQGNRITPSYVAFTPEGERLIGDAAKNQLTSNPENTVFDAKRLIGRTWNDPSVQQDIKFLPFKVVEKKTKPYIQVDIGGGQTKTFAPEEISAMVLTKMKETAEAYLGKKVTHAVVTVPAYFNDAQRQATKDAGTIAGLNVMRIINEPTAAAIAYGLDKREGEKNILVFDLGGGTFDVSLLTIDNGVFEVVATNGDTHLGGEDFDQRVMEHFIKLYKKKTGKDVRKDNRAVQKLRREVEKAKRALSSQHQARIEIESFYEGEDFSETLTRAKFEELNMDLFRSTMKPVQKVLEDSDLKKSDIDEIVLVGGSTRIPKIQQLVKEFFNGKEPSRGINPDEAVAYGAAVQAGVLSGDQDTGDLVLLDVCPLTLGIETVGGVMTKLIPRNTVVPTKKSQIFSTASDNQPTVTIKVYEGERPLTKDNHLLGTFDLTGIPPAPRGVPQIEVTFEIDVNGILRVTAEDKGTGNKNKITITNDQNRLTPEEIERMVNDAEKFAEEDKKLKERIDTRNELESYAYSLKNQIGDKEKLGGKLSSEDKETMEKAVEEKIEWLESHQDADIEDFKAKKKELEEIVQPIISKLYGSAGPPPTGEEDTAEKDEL
UniProt P08754: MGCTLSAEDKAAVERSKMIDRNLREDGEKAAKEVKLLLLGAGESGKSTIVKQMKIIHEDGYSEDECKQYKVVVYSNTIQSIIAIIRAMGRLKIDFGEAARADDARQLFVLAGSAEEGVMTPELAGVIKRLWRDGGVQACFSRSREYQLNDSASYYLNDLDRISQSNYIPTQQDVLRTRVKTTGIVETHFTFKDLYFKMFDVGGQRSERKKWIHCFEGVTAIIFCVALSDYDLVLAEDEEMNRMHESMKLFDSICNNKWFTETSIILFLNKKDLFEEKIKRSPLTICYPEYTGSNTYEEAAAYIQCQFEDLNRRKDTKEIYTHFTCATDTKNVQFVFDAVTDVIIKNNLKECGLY
UniProt Q8IY17: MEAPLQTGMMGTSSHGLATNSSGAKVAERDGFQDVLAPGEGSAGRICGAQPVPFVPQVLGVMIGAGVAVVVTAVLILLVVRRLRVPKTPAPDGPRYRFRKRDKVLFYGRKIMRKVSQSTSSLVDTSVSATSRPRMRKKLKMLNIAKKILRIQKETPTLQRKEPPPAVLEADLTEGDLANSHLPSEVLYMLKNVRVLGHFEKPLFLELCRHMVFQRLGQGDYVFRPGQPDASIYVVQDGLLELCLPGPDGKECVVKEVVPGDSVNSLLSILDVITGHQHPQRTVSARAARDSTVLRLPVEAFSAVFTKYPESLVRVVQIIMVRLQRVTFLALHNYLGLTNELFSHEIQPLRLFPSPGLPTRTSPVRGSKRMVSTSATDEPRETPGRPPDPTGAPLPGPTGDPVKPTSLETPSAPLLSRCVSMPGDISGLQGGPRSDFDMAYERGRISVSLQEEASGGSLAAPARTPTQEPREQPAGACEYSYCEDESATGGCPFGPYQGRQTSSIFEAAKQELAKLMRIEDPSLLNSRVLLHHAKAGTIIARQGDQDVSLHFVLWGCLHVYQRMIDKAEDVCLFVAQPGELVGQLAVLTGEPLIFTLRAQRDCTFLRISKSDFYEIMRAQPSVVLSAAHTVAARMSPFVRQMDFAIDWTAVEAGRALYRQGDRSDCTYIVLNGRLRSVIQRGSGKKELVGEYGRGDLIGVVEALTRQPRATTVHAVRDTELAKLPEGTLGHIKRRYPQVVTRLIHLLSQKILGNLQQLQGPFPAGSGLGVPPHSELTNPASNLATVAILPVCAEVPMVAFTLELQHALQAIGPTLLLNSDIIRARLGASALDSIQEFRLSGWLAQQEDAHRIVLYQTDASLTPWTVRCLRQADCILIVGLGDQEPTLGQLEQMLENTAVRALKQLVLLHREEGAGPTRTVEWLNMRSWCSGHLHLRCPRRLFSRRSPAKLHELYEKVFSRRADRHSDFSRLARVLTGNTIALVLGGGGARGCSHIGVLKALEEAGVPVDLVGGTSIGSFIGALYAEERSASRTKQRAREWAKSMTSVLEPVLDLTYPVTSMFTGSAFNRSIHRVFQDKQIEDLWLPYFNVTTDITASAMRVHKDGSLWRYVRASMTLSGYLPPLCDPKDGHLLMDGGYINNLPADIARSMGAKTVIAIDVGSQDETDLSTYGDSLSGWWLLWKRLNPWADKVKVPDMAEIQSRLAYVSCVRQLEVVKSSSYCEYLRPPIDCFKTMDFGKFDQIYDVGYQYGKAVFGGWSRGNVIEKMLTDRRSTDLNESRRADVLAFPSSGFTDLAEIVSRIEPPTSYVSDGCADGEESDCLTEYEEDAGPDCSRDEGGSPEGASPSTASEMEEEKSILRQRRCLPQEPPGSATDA
UniProt P07237, residues 18-508: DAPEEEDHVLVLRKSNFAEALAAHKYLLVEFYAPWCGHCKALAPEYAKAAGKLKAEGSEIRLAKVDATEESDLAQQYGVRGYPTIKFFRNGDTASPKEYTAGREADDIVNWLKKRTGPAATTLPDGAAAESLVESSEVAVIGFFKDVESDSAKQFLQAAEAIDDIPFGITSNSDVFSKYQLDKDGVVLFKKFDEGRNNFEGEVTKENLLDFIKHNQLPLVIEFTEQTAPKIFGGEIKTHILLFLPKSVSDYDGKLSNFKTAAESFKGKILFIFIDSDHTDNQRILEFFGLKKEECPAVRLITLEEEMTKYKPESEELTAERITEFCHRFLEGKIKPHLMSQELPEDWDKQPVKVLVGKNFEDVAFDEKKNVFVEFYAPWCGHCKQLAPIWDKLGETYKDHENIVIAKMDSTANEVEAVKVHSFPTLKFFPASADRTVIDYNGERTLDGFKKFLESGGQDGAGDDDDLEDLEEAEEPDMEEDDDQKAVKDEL

Legend:
Assay in all cases: pull-down; HEK293T cells transfected with constructs of both tagged proteins; pull-down with S protein beads; Western blot
PLD6 (human) = molecular target: T1, PLD6 (human) (UniProt Q8N2A8)
T1 sequence: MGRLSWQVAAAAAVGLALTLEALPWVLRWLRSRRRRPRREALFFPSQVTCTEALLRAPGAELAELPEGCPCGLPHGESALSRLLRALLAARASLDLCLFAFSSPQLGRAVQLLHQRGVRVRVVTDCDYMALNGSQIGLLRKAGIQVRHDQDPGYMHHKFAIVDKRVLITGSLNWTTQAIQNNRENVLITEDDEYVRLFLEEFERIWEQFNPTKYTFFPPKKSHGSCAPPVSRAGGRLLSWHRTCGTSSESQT

SFB-tagged PLD5 (human) = molecular target: T2, SFB-tagged PLD5 (human) (UniProt Q8N7P1)
T2 sequence: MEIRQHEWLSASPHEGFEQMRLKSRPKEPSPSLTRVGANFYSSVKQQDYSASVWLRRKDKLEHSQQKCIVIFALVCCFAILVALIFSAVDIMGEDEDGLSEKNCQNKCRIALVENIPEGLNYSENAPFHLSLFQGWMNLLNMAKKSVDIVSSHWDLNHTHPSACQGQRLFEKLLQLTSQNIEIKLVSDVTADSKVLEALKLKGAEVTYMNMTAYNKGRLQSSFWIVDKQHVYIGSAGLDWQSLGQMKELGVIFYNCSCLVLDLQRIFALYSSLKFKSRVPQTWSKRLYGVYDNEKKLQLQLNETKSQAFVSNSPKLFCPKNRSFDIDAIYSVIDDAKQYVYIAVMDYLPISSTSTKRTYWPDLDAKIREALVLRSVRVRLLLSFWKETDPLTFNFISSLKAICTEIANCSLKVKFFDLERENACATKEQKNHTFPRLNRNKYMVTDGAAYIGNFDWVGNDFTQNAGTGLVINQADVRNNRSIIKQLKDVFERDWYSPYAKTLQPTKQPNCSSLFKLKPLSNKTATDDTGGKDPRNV

PLD3 (human) = molecular target: T3, PLD3 (human) (UniProt Q8IV08)
T3 sequence: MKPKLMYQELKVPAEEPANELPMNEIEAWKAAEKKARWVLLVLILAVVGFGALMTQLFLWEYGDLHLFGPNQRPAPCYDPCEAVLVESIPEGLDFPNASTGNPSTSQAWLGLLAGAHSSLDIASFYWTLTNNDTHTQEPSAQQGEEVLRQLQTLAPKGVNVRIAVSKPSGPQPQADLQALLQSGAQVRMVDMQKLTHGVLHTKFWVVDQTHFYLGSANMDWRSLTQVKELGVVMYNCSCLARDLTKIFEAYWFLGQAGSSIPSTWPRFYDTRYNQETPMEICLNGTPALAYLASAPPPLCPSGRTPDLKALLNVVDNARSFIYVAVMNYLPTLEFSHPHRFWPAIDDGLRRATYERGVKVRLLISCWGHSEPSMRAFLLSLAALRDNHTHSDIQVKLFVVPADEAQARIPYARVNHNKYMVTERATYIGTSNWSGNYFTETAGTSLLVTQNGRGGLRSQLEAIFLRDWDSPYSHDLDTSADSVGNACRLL

PLD4 (human) = molecular target: T4, PLD4 (human) (UniProt Q96BZ4)
T4 sequence: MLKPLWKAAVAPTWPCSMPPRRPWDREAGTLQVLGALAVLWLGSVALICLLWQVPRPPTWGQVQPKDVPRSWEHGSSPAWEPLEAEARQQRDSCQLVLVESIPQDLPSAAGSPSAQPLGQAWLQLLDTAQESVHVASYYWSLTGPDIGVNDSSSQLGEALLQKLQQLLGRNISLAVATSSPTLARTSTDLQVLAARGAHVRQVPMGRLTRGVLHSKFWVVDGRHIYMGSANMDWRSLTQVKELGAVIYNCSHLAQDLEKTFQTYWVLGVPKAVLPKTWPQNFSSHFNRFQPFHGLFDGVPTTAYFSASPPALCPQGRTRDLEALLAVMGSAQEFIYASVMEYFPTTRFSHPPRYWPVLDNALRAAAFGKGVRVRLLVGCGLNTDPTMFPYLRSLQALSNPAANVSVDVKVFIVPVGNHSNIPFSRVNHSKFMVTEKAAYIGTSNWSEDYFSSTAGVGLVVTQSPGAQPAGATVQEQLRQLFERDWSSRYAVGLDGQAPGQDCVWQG

Row | Molecule | binding (PLD6 (human)) | binding (SFB-tagged PLD5 (human)) | also measured
1 | HSPA5 (from UniProt P11021 19-654) | binds | – | –
2 | HA-tagged GNAI3 (from UniProt P08754 1-354) | – | binds | –
3 | PNPLA6 (from UniProt Q8IY17 1-1375) | – | – | binding (PLD3 (human)): binds
4 | P4HB (from UniProt P07237 18-508) | binds | – | –
5 | PLD3 (protein, UniProt Q8IV08 1-490) MKPKLMYQELKVPAEEPANELPMNEIEAWKAAEKKARWVLLVLILAVVGFGALMTQLFLWEYGDLHLFGPNQRPAPCYDPCEAVLVESIPEGLDFPNASTGNPSTSQAWLGLLAGAHSSLDIASFYWTLTNNDTHTQEPSAQQGEEVLRQLQTLAPKGVNVRIAVSKPSGPQPQADLQALLQSGAQVRMVDMQKLTHGVLHTKFWVVDQTHFYLGSANMDWRSLTQVKELGVVMYNCSCLARDLTKIFEAYWFLGQAGSSIPSTWPRFYDTRYNQETPMEICLNGTPALAYLASAPPPLCPSGRTPDLKALLNVVDNARSFIYVAVMNYLPTLEFSHPHRFWPAIDDGLRRATYERGVKVRLLISCWGHSEPSMRAFLLSLAALRDNHTHSDIQVKLFVVPADEAQARIPYARVNHNKYMVTERATYIGTSNWSGNYFTETAGTSLLVTQNGRGGLRSQLEAIFLRDWDSPYSHDLDTSADSVGNACRLL | – | – | binding (PLD3 (human)): binds
6 | TMX3 (protein, UniProt Q96JJ7 25-454) KGFVEDLDESFKENRNDDIWLVDFYAPWCGHCKKLEPIWNEVGLEMKSIGSPVKVGKMDATSYSSIASEFGVRGYPTIKLLKGDLAYNYRGPRTKDDIIEFAHRVSGALIRPLPSQQMFEHMQKRHRVFFVYVGGESPLKEKYIDAASELIVYTYFFSASEEVVPEYVTLKEMPAVLVFKDETYFVYDEYEDGDLSSWINRERFQNYLAMDGFLLYELGDTGKLVALAVIDEKNTSVEHTRLKSIIQEVARDYRDLFHRDFQFGHMDGNDYINTLLMDELTVPTVVVLNTSNQQYFLLDRQIKNVEDMVQFINNILDGTVEAQGGDSILQRLKRIVFDAKSTIVSIFKSSPLMGCFLFGLPLGVISIMCYGIYTADTDGGYIEERYEVSKSENENQEQIEESKEQQEPSSGGSVVPTVQEPKDVLEKKKD | – | – | binding (PLD4 (human)): binds
7 | ERLEC1 (protein, UniProt Q96DZ1 34-483) LPQLSDDIPFRVNWPGTEFSLPTTGVLYKEDNYVIMTTAHKEKYKCILPLVTSGDEEEEKDYKGPNPRELLEPLFKQSSCSYRIESYWTYEVCHGKHIRQYHEEKETGQKINIHEYYLGNMLAKNLLFEKEREAEEKEKSNEIPTKNIEGQMTPYYPVGMGNGTPCSLKQNRPRSSTVMYICHPESKHEILSVAEVTTCEYEVVILTPLLCSHPKYRFRASPVNDIFCQSLPGSPFKPLTLRQLEQQEEILRVPFRRNKEEDLQSTKEERFPAIHKSIAIGSQPVLTVGTTHISKLTDDQLIKEFLSGSYCFRGGVGWWKYEFCYGKHVHQYHEDKDSGKTSVVVGTWNQEEHIEWAKKNTARAYHLQDDGTQTVRMVSHFYGNGDICDITDKPRQVTVKLKCKESDSPHAVTVYMLEPHSCQYILGVESPVICKILDTADENGLLSLPN | binds | – | –
8 | ACOT9 (protein, UniProt Q9Y305 22-439) LTQGPQNPKKQGIFHIHEVRDKLREIVGASTNWRDHVKAMEERKLLHSFLAKSQDGLPPRRMKDSYIEVLLPLGSEPELREKYLTVQNTVRFGRILEDLDSLGVLICYMHNKIHSAKMSPLSIVTALVDKIDMCKKSLSPEQDIKFSGHVSWVGKTSMEVKMQMFQLHGDEFCPVLDATFVMVARDSENKGPAFVNPLIPESPEEEELFRQGELNKGRRIAFSSTSLLKMAPSAEERTTIHEMFLSTLDPKTISFRSRVLPSNAVWMENSKLKSLEICHPQERNIFNRIFGGFLMRKAYELAWATACSFGGSRPFVVAVDDIMFQKPVEVGSLLFLSSQVCFTQNNYIQVRVHSEVASLQEKQHTTTNVFHFTFMSEKEVPLVFPKTYGESMLYLDGQRHFNSMSGPATLRKDYLVEP | binds | – | –
9 | HA-tagged PCCB (protein, UniProt P05166 29-539) CSQATSVNERIENKRRTALLGGGQRRIDAQHKRGKLTARERISLLLDPGSFVESDMFVEHRCADFGMAADKNKFPGDSVVTGRGRINGRLVYVFSQDFTVFGGSLSGAHAQKICKIMDQAITVGAPVIGLNDSGGARIQEGVESLAGYADIFLRNVTASGVIPQISLIMGPCAGGAVYSPALTDFTFMVKDTSYLFITGPDVVKSVTNEDVTQEELGGAKTHTTMSGVAHRAFENDVDALCNLRDFFNYLPLSSQDPAPVRECHDPSDRLVPELDTIVPLESTKAYNMVDIIHSVVDEREFFEIMPNYAKNIIVGFARMNGRTVGIVGNQPKVASGCLDINSSVKGARFVRFCDAFNIPLITFVDVPGFLPGTAQEYGGIIRHGAKLLYAFAEATVPKVTVITRKAYGGAYDVMSSKHLCGDTNYAWPTAEIAVMGAKGAVEIIFKGHENVEAAQAEYIEKFANPFPAAVRGFVDDIIQPSSTRARICCDLDVLASKKVQRPWRKHANIPL | – | binds | –
10 | HA-tagged TTC1 (protein, UniProt Q99614 1-292) MGEKSENCGVPEDLLNGLKVTDTQEAECAGPPVPDPKNQHSQSKLLRDDEAHLQEDQGEEECFHDCSASFEEEPGADKVENKSNEDVNSSELDEEYLIELEKNMSDEEKQKRREESTRLKEEGNEQFKKGDYIEAESSYSRALEMCPSCFQKERSILFSNRAAARMKQDKKEMAINDCSKAIQLNPSYIRAILRRAELYEKTDKLDEALEDYKSILEKDPSIHQAREACMRLPKQIEERNERLKEEMLGKLKDLGNLVLRPFGLSTENFQIKQDSSTGSYSINFVQNPNNNR | – | binds | –
11 | HA-tagged UNC45A (protein, UniProt Q9H3U1 1-944) MTVSGPGTPEPRPATPGASSVEQLRKEGNELFKCGDYGGALAAYTQALGLDATPQDQAVLHRNRAACHLKLEDYDKAETEASKAIEKDGGDVKALYRRSQALEKLGRLDQAVLDLQRCVSLEPKNKVFQEALRNIGGQIQEKVRYMSSTDAKVEQMFQILLDPEEKGTEKKQKASQNLVVLAREDAGAEKIFRSNGVQLLQRLLDMGETDLMLAALRTLVGICSEHQSRTVATLSILGTRRVVSILGVESQAVSLAACHLLQVMFDALKEGVKKGFRGKEGAIIVDPARELKVLISNLLDLLTEVGVSGQGRDNALTLLIKAVPRKSLKDPNNSLTLWVIDQGLKKILEVGGSLQDPPGELAVTANSRMSASILLSKLFDDLKCDAERENFHRLCENYIKSWFEGQGLAGKLRAIQTVSCLLQGPCDAGNRALELSGVMESVIALCASEQEEEQLVAVEALIHAAGKAKRASFITANGVSLLKDLYKCSEKDSIRIRALVGLCKLGSAGGTDFSMKQFAEGSTLKLAKQCRKWLCNDQIDAGTRRWAVEGLAYLTFDADVKEEFVEDAAALKALFQLSRLEERSVLFAVASALVNCTNSYDYEEPDPKMVELAKYAKQHVPEQHPKDKPSFVRARVKKLLAAGVVSAMVCMVKTESPVLTSSCRELLSRVFLALVEEVEDRGTVVAQGGGRALIPLALEGTDVGQTKAAQALAKLTITSNPEMTFPGERIYEVVRPLVSLLHLNCSGLQNFEALMALTNLAGISERLRQKILKEKAVPMIEGYMFEEHEMIRRAATECMCNLAMSKEVQDLFEAQGNDRLKLLVLYSGEDDELLQRAAAGGLAMLTSMRPTLCSRIPQVTTHWLEILQALLLSSNQELQHRGAVVVLNMVEASREIASTLMESEMMEILSVLAKGDHSPVTRAAAACLDKAVEYGLIQPNQDGE | – | binds | –
